Assay [1] has as its target human GSK3α with a FLAG tag at the N-terminal side (human) (UniProt P49840). Kind of assay: examination of interactions of glucose metabolism-related proteins with CAPBP1 (co-immunoprecipitation).
Assay [2] has the same target. Kind of assay: co-immunoprecipitation from COS-1 cells with anti-FLAG antibody, anti-V5 Western blot. On the technique in general: Immunoblotting shows a protein as a band on a membrane.

Amino acid sequences for entries named in this document (tags omitted). Residues count along the entry.
UniProt P49840, residues 2-483: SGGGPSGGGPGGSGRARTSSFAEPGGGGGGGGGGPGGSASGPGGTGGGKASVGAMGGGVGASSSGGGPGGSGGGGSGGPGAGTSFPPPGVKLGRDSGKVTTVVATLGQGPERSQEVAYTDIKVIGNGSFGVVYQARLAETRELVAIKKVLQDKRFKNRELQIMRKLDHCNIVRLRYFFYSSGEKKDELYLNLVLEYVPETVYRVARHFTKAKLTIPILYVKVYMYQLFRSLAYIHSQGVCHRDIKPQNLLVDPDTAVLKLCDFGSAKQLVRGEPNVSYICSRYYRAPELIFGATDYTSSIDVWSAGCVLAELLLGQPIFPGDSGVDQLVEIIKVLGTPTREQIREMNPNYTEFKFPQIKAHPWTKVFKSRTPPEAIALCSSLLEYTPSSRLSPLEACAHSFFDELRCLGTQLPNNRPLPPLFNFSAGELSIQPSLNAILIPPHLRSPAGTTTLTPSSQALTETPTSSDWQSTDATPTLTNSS

Results are given in words; binding and its absence hold for the method and conditions named. In cells and extracts the contact can be indirect. Some binding calls cover weakened binding; strength is not graded here. Where a sequence is shown, tags or fusion partners need not be part of it.

B1: CAPBP1-V3-His6 fusion protein (CAPBP1 with C-terminal V5 epitope and His6 tag), from pcDNA-CAPBP1 (-) (protein, not shown: small tags and cut ends)
chain: MRRSRSSAAAKLRGQKRSGASAAPAASAAAALAPSATRTRRSASQAGSKSQAVEKPPSEKPRLRRSSPRAQEEGPGEPPPPELALLPPPPPPPPTPATPTSSASNLDLGEQRERWETFQKRQKLTSEGAAKLLLDTFEYQGLVKHTGGCHCGAVRFEVWASADLHIFDCKYRNYI
In the case of B1, the binding result in assay [1] and in assay [2] was “binds” throughout.

The values are drawn from patent US20060008857A1.
